This is a selection; strong and weak results do not stand in their true shares. Calls are pooled over several reports, among them a noisy single-well screen. This is one part of the list.
System: T1, OR8U9
T1 sequence (whole entry): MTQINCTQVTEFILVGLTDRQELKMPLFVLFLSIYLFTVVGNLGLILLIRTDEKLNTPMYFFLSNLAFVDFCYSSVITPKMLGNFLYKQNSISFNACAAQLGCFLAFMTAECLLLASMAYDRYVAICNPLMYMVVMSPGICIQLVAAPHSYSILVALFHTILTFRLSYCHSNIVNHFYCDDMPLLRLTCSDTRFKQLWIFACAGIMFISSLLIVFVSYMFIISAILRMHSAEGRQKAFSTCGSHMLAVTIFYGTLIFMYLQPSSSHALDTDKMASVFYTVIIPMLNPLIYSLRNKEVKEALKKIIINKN
Conditions: stereoisomer not certain
Outline: (§1)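 Each entry records the cell line, G-protein, co-transfected protein and tags used. Methods varied with the source, often transient luciferase assays in mammalian cell lines. A receptor–molecule pair is called responsive (active) if the original authors judged its signal statistically different from baseline and non-responsive (inactive) otherwise.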

SMILES	odorant receptor agonist call
CC(C)C=O	inactive
O=C1CCCCC1	inactive
CC(=O)OC(C)(C)C1CC=C(C)CC1 (stereo not given)	inactive
CC(=O)C(C)=O	inactive
CC(C)CCC(=O)O	inactive
CCCC(=O)O	inactive
CCCCCCCCCC=O	inactive
C=CCc1ccc(OC(C)=O)c(OC)c1	inactive
O=C1CCCCCCCCCCCCCCO1	inactive
COc1cc(C)ccc1O	inactive
CCCCCC(=O)O	inactive
CC(=O)OCC=C(C)CCC=C(C)C	inactive
CC12CCC(C1)C(C)(C)C2=O (stereo not given)	inactive
COC(=O)c1ccccc1	inactive
c1ccc(Oc2ccccc2)cc1	inactive
COc1ccccc1O	inactive
C=CC(C)(O)CCC=C(C)C (stereo not given)	inactive
CCCCCC(C)=O	inactive
CC12CCC(CC1)C(C)(C)O2	inactive
CC(C)=CCCC(C)=CC=O	inactive
CC1COCc2cc3c(cc21)C(C)(C)C(C)C3(C)C (stereo not given)	active
C=CCSCC=C	inactive
CCCCCCCC=CC=O	inactive
CC1=NC(C)SC1C (stereo not given)	inactive
CCCCCCCC=O	inactive

System: T2, OR9A2
T2 sequence (whole entry): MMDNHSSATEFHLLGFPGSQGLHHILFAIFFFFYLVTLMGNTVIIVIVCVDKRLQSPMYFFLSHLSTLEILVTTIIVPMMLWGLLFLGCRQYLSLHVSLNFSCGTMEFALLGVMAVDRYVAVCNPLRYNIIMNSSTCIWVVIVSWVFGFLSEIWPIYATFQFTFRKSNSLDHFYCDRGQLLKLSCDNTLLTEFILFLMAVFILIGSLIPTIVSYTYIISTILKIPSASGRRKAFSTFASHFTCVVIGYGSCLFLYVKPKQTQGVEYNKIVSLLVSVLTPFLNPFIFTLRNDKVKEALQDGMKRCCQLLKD
Conditions: stereoisomer not certain
Outline: as §1

SMILES	odorant receptor agonist call
CC(C)C=O	inactive
O=C1CCCCC1	inactive
CC(=O)OC(C)(C)C1CC=C(C)CC1 (stereo not given)	inactive
CC(=O)C(C)=O	inactive
CC(C)CCC(=O)O	inactive
CCCC(=O)O	inactive
CCCCCCCCCC=O	inactive
C=CCc1ccc(OC(C)=O)c(OC)c1	inactive
O=C1CCCCCCCCCCCCCCO1	inactive
COc1cc(C)ccc1O	inactive
CCCCCC(=O)O	inactive
CC(=O)OCC=C(C)CCC=C(C)C	inactive
CC12CCC(C1)C(C)(C)C2=O (stereo not given)	inactive
COC(=O)c1ccccc1	inactive
c1ccc(Oc2ccccc2)cc1	inactive
COc1ccccc1O	inactive
C=CC(C)(O)CCC=C(C)C (stereo not given)	inactive
CCCCCC(C)=O	inactive
CC12CCC(CC1)C(C)(C)O2	inactive
CC(C)=CCCC(C)=CC=O	inactive
CC1COCc2cc3c(cc21)C(C)(C)C(C)C3(C)C (stereo not given)	active
C=CCSCC=C	inactive
CCCCCCCC=CC=O	inactive
CC1=NC(C)SC1C (stereo not given)	inactive
CCCCCCCC=O	inactive

Target: T3, OR9A4 (Homo sapiens) (UniProt Q8NGU2)
T3 sequence (whole entry): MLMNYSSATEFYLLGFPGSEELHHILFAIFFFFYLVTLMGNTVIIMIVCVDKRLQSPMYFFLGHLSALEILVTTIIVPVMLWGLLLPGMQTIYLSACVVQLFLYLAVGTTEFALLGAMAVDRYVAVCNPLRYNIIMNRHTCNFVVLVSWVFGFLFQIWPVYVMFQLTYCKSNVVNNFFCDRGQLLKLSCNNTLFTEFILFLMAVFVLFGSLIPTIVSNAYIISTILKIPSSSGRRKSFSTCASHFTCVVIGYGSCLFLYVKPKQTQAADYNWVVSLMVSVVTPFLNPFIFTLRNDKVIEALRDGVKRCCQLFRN
Conditions: stereoisomer not certain
Outline: as §1

SMILES	odorant receptor agonist call
CC(C)C=O	active
O=C1CCCCC1	inactive
CC(=O)OC(C)(C)C1CC=C(C)CC1 (stereo not given)	inactive
CC(=O)C(C)=O	inactive
CC(C)CCC(=O)O	inactive
CCCC(=O)O	inactive
CCCCCCCCCC=O	inactive
C=CCc1ccc(OC(C)=O)c(OC)c1	inactive
O=C1CCCCCCCCCCCCCCO1	inactive
COc1cc(C)ccc1O	inactive
CCCCCC(=O)O	inactive
CC(=O)OCC=C(C)CCC=C(C)C	active
CC12CCC(C1)C(C)(C)C2=O (stereo not given)	inactive
COC(=O)c1ccccc1	inactive
c1ccc(Oc2ccccc2)cc1	inactive
COc1ccccc1O	active
C=CC(C)(O)CCC=C(C)C (stereo not given)	inactive
CCCCCC(C)=O	inactive
CC12CCC(CC1)C(C)(C)O2	inactive
CC(C)=CCCC(C)=CC=O	inactive
CC1COCc2cc3c(cc21)C(C)(C)C(C)C3(C)C (stereo not given)	active
C=CCSCC=C	inactive
CCCCCCCC=CC=O	inactive
CC1=NC(C)SC1C (stereo not given)	inactive
CCCCCCCC=O	inactive
